The other results are listed elsewhere or left out.
Experiments:
Experiment in all cases: log2 fold change, soluble protein after heating vs DMSO (PISA); higher = thermal stabilisation; K562 lysate, 10 uM; active = over 0.2 and 3.5 SD of the protein, either way, in both replicates (recomputed)
erlotinib = compound: C#Cc1cccc(Nc2ncnc3cc(OCCOC)c(OCCOC)cc23)c1 [erlotinib]
In short: (§1)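 K562 pellets were dounce-homogenised in PBS pH 7.4 with 1 mM MgCl2, and the crude extract at 1 mg/mL protein was treated with 10 μM compound for 30 min. Aliquots were heated for 3 min across 48°C-58°C, pooled, and brought to 0.5% NP-40 at 4°C; soluble protein was the supernatant after 21,000xg for 90 min. Soluble protein was quantified by TMTpro 16plex LC-MS/MS with channel sums equalised, and reported as log2 fold change in thermal stability against DMSO controls, with values from duplicates.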

Sequences of proteins named here, by UniProt entry; tags and fusion partners are left off. A change or cut given only in a name is not applied to a line headed by its entry.
UniProt Q9BRR8: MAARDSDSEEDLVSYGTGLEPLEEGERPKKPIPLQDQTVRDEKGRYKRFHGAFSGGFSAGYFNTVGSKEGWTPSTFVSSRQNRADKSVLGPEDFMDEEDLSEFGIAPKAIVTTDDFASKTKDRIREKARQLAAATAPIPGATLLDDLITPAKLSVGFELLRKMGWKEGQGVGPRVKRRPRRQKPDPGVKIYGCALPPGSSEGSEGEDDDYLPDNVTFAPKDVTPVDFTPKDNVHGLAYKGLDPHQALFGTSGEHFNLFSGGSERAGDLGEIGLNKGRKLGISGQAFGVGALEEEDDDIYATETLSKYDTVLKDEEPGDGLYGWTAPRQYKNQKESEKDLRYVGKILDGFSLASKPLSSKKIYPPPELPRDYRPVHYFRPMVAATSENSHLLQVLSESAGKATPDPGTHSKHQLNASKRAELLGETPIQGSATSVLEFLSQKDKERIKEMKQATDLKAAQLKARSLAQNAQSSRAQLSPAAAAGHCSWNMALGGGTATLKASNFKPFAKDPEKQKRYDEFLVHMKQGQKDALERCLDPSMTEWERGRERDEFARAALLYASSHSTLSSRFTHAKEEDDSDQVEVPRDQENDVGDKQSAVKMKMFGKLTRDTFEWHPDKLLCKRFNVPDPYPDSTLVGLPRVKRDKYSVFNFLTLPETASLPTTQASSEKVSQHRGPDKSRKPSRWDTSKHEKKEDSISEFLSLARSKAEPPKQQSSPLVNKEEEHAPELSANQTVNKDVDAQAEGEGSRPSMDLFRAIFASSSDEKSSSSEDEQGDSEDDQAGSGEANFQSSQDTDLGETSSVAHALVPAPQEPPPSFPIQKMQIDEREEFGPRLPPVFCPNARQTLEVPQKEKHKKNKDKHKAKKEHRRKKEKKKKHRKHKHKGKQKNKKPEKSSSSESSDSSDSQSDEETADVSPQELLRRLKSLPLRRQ
UniProt Q9BYB4: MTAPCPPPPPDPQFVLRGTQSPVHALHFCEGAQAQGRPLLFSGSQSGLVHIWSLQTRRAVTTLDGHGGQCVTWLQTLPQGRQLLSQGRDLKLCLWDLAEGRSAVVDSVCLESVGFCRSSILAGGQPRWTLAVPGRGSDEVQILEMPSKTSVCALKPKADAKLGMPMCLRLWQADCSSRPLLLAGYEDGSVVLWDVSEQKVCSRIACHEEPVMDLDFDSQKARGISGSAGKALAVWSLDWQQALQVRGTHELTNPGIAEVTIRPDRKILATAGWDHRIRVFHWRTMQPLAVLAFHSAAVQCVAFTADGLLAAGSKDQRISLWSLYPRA
UniProt Q9UHW5, whole entry, looked up: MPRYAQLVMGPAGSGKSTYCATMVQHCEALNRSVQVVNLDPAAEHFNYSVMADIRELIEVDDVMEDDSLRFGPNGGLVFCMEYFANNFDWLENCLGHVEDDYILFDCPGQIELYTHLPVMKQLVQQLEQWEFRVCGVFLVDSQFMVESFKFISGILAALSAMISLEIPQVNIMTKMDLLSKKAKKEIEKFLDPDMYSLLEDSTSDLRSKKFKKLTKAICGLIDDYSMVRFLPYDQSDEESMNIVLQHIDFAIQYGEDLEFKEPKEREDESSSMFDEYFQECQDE
UniProt Q14161: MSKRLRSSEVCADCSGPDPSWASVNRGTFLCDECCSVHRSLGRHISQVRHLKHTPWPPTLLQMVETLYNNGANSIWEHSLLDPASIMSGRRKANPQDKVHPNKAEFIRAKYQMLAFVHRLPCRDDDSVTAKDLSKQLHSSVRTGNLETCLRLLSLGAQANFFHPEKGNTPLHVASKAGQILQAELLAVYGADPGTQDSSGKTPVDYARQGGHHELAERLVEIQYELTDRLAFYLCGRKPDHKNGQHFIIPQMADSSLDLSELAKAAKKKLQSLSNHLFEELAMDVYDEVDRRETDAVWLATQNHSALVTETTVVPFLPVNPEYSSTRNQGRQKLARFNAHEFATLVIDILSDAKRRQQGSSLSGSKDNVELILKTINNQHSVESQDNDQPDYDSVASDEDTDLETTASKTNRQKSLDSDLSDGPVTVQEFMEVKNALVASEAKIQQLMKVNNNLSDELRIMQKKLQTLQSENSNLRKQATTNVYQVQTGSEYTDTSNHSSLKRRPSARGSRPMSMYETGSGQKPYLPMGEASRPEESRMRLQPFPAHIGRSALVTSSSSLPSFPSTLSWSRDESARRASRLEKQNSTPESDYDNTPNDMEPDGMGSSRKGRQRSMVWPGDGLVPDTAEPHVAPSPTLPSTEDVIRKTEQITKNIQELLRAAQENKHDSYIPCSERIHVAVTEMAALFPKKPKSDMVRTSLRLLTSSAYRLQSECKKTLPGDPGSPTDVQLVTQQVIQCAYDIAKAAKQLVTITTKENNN
UniProt Q53GS7: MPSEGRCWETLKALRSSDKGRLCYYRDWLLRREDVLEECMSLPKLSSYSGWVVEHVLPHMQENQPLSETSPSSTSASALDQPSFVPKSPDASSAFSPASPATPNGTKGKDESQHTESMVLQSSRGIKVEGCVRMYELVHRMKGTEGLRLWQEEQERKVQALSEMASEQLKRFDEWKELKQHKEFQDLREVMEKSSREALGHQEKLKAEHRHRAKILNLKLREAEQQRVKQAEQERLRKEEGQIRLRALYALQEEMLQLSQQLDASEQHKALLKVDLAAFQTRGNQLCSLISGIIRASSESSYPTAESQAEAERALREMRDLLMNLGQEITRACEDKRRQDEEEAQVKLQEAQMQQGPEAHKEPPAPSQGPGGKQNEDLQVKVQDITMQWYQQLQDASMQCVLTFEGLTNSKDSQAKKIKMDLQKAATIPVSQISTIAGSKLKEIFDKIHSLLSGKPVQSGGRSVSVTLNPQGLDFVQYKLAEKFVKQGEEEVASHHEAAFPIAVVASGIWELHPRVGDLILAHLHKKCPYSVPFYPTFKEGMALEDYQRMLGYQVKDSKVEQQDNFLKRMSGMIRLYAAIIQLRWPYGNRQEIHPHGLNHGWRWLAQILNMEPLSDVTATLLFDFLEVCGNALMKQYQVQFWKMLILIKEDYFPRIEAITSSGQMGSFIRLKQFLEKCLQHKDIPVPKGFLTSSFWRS
UniProt Q9NS18: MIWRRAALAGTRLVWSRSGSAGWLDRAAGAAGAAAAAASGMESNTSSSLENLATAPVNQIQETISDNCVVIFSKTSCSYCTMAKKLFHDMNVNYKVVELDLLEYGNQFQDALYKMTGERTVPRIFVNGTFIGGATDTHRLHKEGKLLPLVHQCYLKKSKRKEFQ
UniProt Q08379: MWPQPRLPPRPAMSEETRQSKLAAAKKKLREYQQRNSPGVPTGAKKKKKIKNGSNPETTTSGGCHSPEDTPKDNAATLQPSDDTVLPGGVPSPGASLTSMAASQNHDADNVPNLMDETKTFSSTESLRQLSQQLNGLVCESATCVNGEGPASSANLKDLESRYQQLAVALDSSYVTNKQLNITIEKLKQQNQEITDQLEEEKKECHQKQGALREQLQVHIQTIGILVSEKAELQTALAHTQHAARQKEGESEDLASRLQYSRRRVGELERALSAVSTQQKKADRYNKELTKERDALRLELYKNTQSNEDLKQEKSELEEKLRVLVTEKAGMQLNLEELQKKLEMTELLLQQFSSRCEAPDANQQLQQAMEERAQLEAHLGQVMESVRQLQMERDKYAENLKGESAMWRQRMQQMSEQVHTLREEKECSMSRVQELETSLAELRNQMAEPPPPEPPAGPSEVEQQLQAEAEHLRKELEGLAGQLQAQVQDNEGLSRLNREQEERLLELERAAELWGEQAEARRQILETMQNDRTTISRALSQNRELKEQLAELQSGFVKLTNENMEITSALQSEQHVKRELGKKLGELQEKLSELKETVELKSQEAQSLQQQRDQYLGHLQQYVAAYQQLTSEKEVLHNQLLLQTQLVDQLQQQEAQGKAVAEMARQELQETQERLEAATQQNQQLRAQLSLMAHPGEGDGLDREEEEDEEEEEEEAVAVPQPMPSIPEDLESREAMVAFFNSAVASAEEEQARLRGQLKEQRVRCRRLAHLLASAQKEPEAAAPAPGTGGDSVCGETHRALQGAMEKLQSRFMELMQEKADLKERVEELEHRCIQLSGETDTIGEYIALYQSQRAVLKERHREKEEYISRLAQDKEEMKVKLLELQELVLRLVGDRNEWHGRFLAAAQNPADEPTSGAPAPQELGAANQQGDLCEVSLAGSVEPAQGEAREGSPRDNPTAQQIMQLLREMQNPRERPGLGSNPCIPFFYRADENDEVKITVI
UniProt Q92896: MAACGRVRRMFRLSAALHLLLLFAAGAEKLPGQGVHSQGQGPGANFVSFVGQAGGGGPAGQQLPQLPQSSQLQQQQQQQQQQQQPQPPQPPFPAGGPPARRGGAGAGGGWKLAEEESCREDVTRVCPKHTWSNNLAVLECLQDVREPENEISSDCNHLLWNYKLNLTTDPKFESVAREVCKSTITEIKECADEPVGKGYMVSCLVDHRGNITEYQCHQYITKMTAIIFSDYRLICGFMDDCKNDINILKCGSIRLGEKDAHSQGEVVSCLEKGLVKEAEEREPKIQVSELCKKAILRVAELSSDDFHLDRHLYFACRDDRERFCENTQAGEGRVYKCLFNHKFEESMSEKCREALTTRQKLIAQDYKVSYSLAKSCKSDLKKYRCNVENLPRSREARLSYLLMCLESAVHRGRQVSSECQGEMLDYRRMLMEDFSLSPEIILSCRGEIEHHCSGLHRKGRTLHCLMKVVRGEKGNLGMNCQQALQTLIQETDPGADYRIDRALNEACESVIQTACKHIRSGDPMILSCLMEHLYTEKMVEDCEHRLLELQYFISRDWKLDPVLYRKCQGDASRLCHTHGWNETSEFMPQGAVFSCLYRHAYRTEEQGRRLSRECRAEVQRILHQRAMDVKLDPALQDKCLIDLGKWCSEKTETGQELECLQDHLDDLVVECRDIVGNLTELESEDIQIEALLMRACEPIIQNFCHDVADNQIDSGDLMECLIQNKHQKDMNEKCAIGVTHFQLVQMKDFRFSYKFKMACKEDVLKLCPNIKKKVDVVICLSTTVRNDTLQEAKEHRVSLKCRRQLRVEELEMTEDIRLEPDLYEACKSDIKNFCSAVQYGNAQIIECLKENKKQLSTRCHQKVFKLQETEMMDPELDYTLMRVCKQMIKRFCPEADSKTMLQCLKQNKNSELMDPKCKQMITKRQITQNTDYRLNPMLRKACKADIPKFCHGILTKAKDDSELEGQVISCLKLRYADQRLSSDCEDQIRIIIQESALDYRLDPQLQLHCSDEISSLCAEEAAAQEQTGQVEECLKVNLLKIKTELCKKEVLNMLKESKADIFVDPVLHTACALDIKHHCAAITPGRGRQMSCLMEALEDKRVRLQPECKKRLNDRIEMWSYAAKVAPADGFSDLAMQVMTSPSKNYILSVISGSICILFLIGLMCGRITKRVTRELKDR
UniProt P35754: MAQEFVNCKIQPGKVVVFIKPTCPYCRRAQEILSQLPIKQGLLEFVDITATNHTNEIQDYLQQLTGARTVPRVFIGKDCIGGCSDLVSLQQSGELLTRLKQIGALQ

[1] = compound: C/C(=N\NC(=O)C1=CC(=CC=C1)S(=O)(=O)N2CCOCC2)/C3=C(C=CC(=C3)Cl)O
In short: as §1

[2] = compound: C1=CC(=CC=C1C2=NC3=C(N2)C=C(C=C3)C(=O)N)OC4=CC=C(C=C4)Cl
In short: as §1

[3] = compound: C1=CC2=C(C=CC(=C2)/C=C\3/C(=O)NC(=NCC4=CC=CS4)S3)N=C1
In short: as §1

[4] = compound: C1=CC2=NC=CN=C2C=C1/C=C/3\C(=O)NC(=O)S3
In short: as §1

[5] = compound: C1=CC=C(C=C1)C2=NC(=C(N2)C3=CC=NC=C3)C4=CC(=C(C=C4)Cl)O
In short: as §1

[6] = compound: C1=CC=C2C(=C1)C3=NNC4=CC=CC(=C43)C2=O
In short: as §1

[7] = compound: C1CCN(C1)C(=O)NC2=CC=CC(=C2)NC3=NC=C(C(=N3)NCCC4=CN=CN4)Br
In short: as §1

[8] = compound: C1CN(CCC1(CC2=CC=C(C=C2)Cl)N)C3=NC=NC4=C3C=CN4
In short: as §1

IRAK-1-4 Inhibitor I = compound: C1COCCN1CCN2C3=CC=CC=C3N=C2NC(=O)C4=CC(=CC=C4)[N+](=O)[O-] [IRAK-1-4 Inhibitor I]
In short: as §1

ibrutinib = compound: C=CC(=O)N1CCC[C@@H](n2nc(-c3ccc(Oc4ccccc4)cc3)c3c(N)ncnc32)C1 [ibrutinib]
In short: as §1

[9] = compound: CC(=O)c1cnc2ccc(-c3cc(Cl)c(O)c(Cl)c3)nc2c1N[C@H]1CC[C@H](CN(C)C)CC1
In short: as §1

ralimetinib = compound: CC(C)(C)Cn1c(N)nc2ccc(-c3[nH]c(C(C)(C)C)nc3-c3ccc(F)cc3)nc21 [ralimetinib]
In short: as §1

[10] = compound: CC(C)(O)CC(=O)NCCn1ccc2ncnc(Nc3ccc(Oc4cccc(C(F)(F)F)c4)c(Cl)c3)c21
In short: as §1

[11] = compound: CC(C)C1=C2N=C(C=C(N2N=C1)NCC3=CC=CC=C3)NCCCCCCN
In short: as §1

[12] = compound: CC1=C(C(CC(=O)N1)C2=CC=C(C=C2)C(F)(F)F)C(=O)NC3=C(C=C4C(=C3)C=NN4)F
In short: as §1

[13] = compound: CC1=C(C2=C(C=C1)C(=O)C3=CC=CC=C3N2CCCN)C
In short: as §1

[14] = compound: CC1=C(C=C(C=C1)NC(=O)C2=CC(=CC=C2)C(C)(C)C#N)NC3=CC4=C(C=C3)N=CN(C4=O)C
In short: as §1

[15] = compound: CC1=C(C=C(C=C1)NC(=O)C2=CC(=CC=C2)N(C)C)NC(=O)C3=CC=C(C=C3)O
In short: as §1

[16] = compound: CC1=CC=C(C=C1)SC2=C3C=C(SC3=CN=C2)C(=O)N
In short: as §1

Measured: log2 fold change

GPATCH1 (UniProt Q9BRR8)
inactive: erlotinib 0.046 | [1] 0.038 | [2] -0.059 | [3] -0.073 | [4] -0.092 | [5] 0.039 | [6] 0.017 | [7] -0.031 | [8] 0.01 | IRAK-1-4 Inhibitor I 0.013 | ibrutinib -0.031 | [9] -0.008 | ralimetinib 0.171 | [10] 0.058 | [11] 0.009 | [12] 0.113 | [13] -0.067 | [14] 0.02 | [15] -0.086 | [16] -0.011

GNB1L (UniProt Q9BYB4)
inactive: erlotinib -0.03 | [1] 0.013 | [2] 0.014 | [3] -0.007 | [4] -0.003 | [5] -0.028 | [6] 0.013 | [7] -0.04 | [8] 0.038 | IRAK-1-4 Inhibitor I 0.009 | ibrutinib -0.022 | [9] -0.016 | ralimetinib 0.024 | [10] -0.014 | [11] -0.014 | [12] -0.001 | [13] 0.023 | [14] 0.094 | [15] -0.068 | [16] -0.019

GPN3 isoform 2 (UniProt Q9UHW5)
inactive: erlotinib 0.003 | [1] -0.162 | [2] 0.068 | [3] -0.077 | [4] 0.018 | [5] -0.047 | [6] 0.083 | [7] -0.046 | [8] -0.019 | IRAK-1-4 Inhibitor I 0.055 | ibrutinib 0.016 | [9] -0.021 | ralimetinib -0.032 | [10] -0.01 | [11] 0 | [12] 0.045 | [13] -0.063 | [14] 0.001 | [15] 0.003 | [16] -0.049

GIT2 (UniProt Q14161)
inactive: erlotinib 0.024 | [1] 0.028 | [2] 0.074 | [3] -0.032 | [4] -0.063 | [5] -0.009 | [6] -0.117 | [7] 0 | [8] 0.122 | IRAK-1-4 Inhibitor I 0.013 | ibrutinib -0.017 | [9] -0.038 | ralimetinib 0.046 | [10] -0.024 | [11] 0.085 | [12] 0 | [13] -0.097 | [14] 0.073 | [15] -0.004 | [16] -0.002

GLE1 (UniProt Q53GS7)
inactive: erlotinib 0.087 | [1] -0.055 | [2] -0.103 | [3] -0.084 | [4] 0.132 | [5] 0.167 | [6] 0.01 | [7] -0.118 | [8] 0.027 | IRAK-1-4 Inhibitor I -0.011 | ibrutinib -0.039 | [9] -0.011 | ralimetinib -0.181 | [10] -0.013 | [11] -0.022 | [12] 0.006 | [13] -0.193 | [14] -0.018 | [15] 0.011 | [16] 0.129

GOPC (UniProt Q9HD26)
inactive: erlotinib -0.023 | [1] -0.084 | [2] 0.01 | [3] 0.001 | [4] -0.005 | [5] -0.003 | [6] -0.02 | [7] -0.018 | [8] -0.013 | IRAK-1-4 Inhibitor I -0.036 | ibrutinib 0.016 | [9] 0.007 | ralimetinib 0.022 | [10] 0.011 | [11] 0.014 | [12] 0.026 | [13] -0.042 | [14] -0.036 | [15] 0.03 | [16] -0.001

Fetched one by one from above, two records:
GNB1L (UniProt Q9BYB4)
inactive: erlotinib -0.03 | [1] 0.013 | [2] 0.014 | [3] -0.007 | [4] -0.003 | [5] -0.028 | [6] 0.013 | [7] -0.04 | [8] 0.038 | IRAK-1-4 Inhibitor I 0.009 | ibrutinib -0.022 | [9] -0.016 | ralimetinib 0.024 | [10] -0.014 | [11] -0.014 | [12] -0.001 | [13] 0.023 | [14] 0.094 | [15] -0.068 | [16] -0.019

GPN3 isoform 2 (UniProt Q9UHW5)
inactive: erlotinib 0.003 | [1] -0.162 | [2] 0.068 | [3] -0.077 | [4] 0.018 | [5] -0.047 | [6] 0.083 | [7] -0.046 | [8] -0.019 | IRAK-1-4 Inhibitor I 0.055 | ibrutinib 0.016 | [9] -0.021 | ralimetinib -0.032 | [10] -0.01 | [11] 0 | [12] 0.045 | [13] -0.063 | [14] 0.001 | [15] 0.003 | [16] -0.049

Later entries.

GLRX2 (UniProt Q9NS18)
inactive: erlotinib 0.006 | [1] 0.04 | [2] 0.02 | [3] 0.022 | [4] 0.035 | [5] 0.049 | [6] 0.04 | [7] 0.128 | [8] 0.09 | IRAK-1-4 Inhibitor I 0.003 | ibrutinib 0.004 | [9] 0.023 | ralimetinib -0.032 | [10] -0.041 | [11] -0.002 | [12] 0.055 | [13] -0.064 | [14] -0.076 | [15] -0.063 | [16] 0.014

GOLGA2 (UniProt Q08379)
inactive: erlotinib 0.002 | [1] 0.022 | [2] -0.012 | [3] -0.002 | [4] -0.007 | [5] -0.011 | [6] -0.161 | [7] 0.035 | [8] 0.046 | IRAK-1-4 Inhibitor I -0.004 | ibrutinib 0 | [9] -0.021 | ralimetinib -0.028 | [10] 0.016 | [11] -0.002 | [12] 0.019 | [13] -0.027 | [14] 0.024 | [15] 0.03 | [16] -0.02

GLG1 isoform 2 (UniProt Q92896)
inactive: erlotinib -0.017 | [1] -0.034 | [2] 0.008 | [3] 0.064 | [4] -0.022 | [5] 0.021 | [6] 0.007 | [7] -0.002 | [8] 0.011 | IRAK-1-4 Inhibitor I -0.021 | ibrutinib -0.001 | [9] 0.009 | ralimetinib -0.003 | [10] -0.037 | [11] -0.016 | [12] 0.024 | [13] -0.011 | [14] -0.024 | [15] 0.009 | [16] 0.013

GLRX (UniProt P35754)
inactive: [1] 0.034 | [3] -0.061 | [6] -0.105 | [7] 0.021 | [8] -0.025 | [14] 0.096

GOLIM4 (UniProt F8W785)
inactive: [14] -0.079
